Laboratory results published in patent publication US20240132590A1.
Results are given in words; binding and its absence hold for the method and conditions named. Some entries that bind do so weakly or less than the wild type.

Sequences of proteins named here, by UniProt entry; tags and fusion partners are left off. A change or cut given only in a name is not applied to a line headed by its entry.
UniProt P07766: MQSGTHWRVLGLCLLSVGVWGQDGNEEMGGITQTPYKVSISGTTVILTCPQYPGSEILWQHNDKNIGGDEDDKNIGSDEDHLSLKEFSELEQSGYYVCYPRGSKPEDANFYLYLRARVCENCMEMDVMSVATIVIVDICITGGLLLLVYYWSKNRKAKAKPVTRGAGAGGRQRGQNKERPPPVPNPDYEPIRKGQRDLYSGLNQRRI

What was measured:
[1] = biological target: human CD3 on cells (human) (UniProt P07766); test: flow cytometry on Jurkat NFAT cells, PE anti-human Fc secondary antibody
[2] = biological target: human CD3 on cells (human) (UniProt P07766); test: flow cytometry on CD3 expressing cells, IgG format
[3] = biological target: human CD3 on cells (human) (UniProt P07766); test: flow cytometry on Jurkat NFAT cells, PE-labelled anti-human Fc secondary antibody

Measured: binding

B1: CD3opt human IgG1 PGLALA (antibody, V domains shown)
VH: EVQLLESGGGLVQPGGSLRLSCAASGFQFSSYAMNWVRQAPGKGLEWVSRIRSKYNNYATYYADSVKGRFTISRDDSKNTLYLQMNSLRAEDTAVYYCVRHTTFPSSYVSYYGYWGQGTLVTVSS
VL: QAVVTQEPSLTVSPGGTVTLTCGSSTGAVTTSNYANWVQEKPGQAFRGLIGGTNKRAPGTPARFSGSLLGGKAALTLSGAQPEDEAEYYCALWYSNLWVFGGGTKLTVLR
binds: all assays above
